Laboratory results as given in article PMC11792487.
No constants are given. Whether binding was seen depends on the method and setting. Binding can be weak; no strength is given. Tags and fused reporters may be left off the sequences shown.

Protein sequences, listed by entry. Tags and fused reporters are not part of them. Lines headed by an entry give the natural chain unless they say otherwise; changes in a name come on top.
UniProt A0AAI7ZEA0: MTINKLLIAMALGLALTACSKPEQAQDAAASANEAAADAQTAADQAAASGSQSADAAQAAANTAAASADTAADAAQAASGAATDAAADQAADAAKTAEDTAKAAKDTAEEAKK

Target: T1, MBP-TolB (TolB fused with maltose-binding protein) (Xanthomonas citri subsp. citri) (UniProt Q8PHV7)
T1 sequence: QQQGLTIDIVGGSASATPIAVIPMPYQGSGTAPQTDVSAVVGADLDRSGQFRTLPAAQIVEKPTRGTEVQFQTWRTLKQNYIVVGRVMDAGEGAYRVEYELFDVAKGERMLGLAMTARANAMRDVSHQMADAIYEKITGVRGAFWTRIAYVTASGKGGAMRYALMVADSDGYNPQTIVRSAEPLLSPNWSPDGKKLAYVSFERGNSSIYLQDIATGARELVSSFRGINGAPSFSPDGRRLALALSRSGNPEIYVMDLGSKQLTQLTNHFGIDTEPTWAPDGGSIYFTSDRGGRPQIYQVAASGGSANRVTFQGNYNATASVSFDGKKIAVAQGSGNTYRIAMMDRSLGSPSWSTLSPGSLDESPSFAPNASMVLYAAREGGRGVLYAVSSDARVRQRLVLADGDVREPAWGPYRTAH
Assay: pull-down; both purified

In the case of “GST-OMPXan (Xanthomonas-specific outer membrane protein XAC1347 fused with GST) (from UniProt A0AAI7ZEA0)”, the binding is reported as “binds”.
